In patent publication US5338726A (Abbott Laboratories, priority 1992, dated 1994):
Where “and” joins values, the source holds several entries; their conditions need not be identical. Equal values may be shown once.

Assay: general procedure: solution-phase peptide synthesis

In the case of “N-(3 -(Methoxycarbonyl) propionyl)-Isoleucyl-Isoleucyl-Statyl-Valyl Benzyl ester”, the step yield (coupling step) is reported as 80%.

In the case of “N-Boc-Isoleucyl-Isoleucyl-Statyl-β-Alanyl Ethyl ester”, the step yield (coupling step, run 1) is reported as 82% and 41%.

“N-Boc-Isoleucyl-Isoleucyl-Statyl-β-Alanyl-OH” showed a step yield (late stage modification step) of 71%.

Work on “N-Succinyl-Isoleucyl-Isoleucyl-Statyl-Valyl-OH” yielded a step yield (late stage modification step) of 57%.

Substance “N-[(4S)-4-(N-Boc-Aspartyl(β-O-Benzyl)-Isoleucyl-Isoleucyl-Amino)-5-(3- indolyl) -3-hydroxypentanoyl]-Valyl Benzyl ester” has a step yield (coupling step) of 33%.

“N-[(4S)-4-(N-Boc-Cyclohexylalanyl-Isoleucyl-Amino)-5-(3-indolyl)-3-hydroxypentanoyl]-Valyl Benzyl ester” gave a step yield (coupling step) of 30%.

Work on “N-[(4S)-4-(N-Boc-Isoleucyl-Isoleucyl-Amino)-5-(3-indolyl)-3-hydroxypentanoyl]-Valyl Benzyl ester” yielded a step yield (coupling step) of 47%.
